From patent publication US12171779B2, “Regulated drug delivery via controlled degradable chondroitin sulfate particles” (UNIVERSITY OF SOUTH FLORIDA, priority 2021, dated 2024)
Some entries share one result that the patent states for a list of compounds.

System: L929 fibroblast cells
Assay: MTT cytotoxicity of drugs and CS-based particles
Assay type: cell-based, Mouse
Settings: 100 μg/mL or above of drug alone, 24 h

Structure (SMILES)	Cell viability
NC[C@H]1O[C@H](O[C@H]2[C@H](O)[C@@H](O[C@H]3O[C@H](CO)[C@@H](O)[C@H](N)[C@H]3O)[C@H](N)C[C@@H]2N)[C@H](N)C[C@@H]1O [tobramycin, Tobramycin]	less than 60%
NCC[C@H](O)C(=O)N[C@@H]1C[C@H](N)[C@@H](O[C@H]2O[C@H](CN)[C@@H](O)[C@H](O)[C@H]2O)[C@H](O)[C@H]1O[C@H]1O[C@H](CO)[C@@H](O)[C@H](N)[C@H]1O [amikacin, amikacin hydrate]	less than 60%
